# Results reported in the supplement of paper PMC8728848.
# This is one part of the list.
# Key:
# Assay in all cases: glycan array binding signal (z-score within array); higher = stronger binding
# Settings in all cases: glycan notation: IUPAC condensed, linker removed
# Fuc(a1-2)Gal = molecular target: Fuc(a1-2)Gal
# Method in brief: (§1)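 Glycan array binding is given as a within-array Z-score, which can be read as non-binding when negative. The arrays, 3228 of them, came from the Consortium for Functional Glycomics database and were retained only where the protein sequence was available. Z-scores were averaged across arrays of the same protein sequence at different concentrations or buffers and across linkers.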
# Fuc(a1-2)Gal(b1-3)GalNAc = molecular target: Fuc(a1-2)Gal(b1-3)GalNAc
# Method in brief: as §1
# [1] = molecular target: Fuc(a1-2)Gal(b1-3)GalNAc(a1-3)[Fuc(a1-2)]Gal(b1-4)Glc
# Method in brief: as §1
# [2] = molecular target: Fuc(a1-2)Gal(b1-3)GalNAc(a1-3)[Fuc(a1-2)]Gal(b1-4)GlcNAc
# Method in brief: as §1
# [3] = molecular target: Fuc(a1-2)Gal(b1-3)GalNAc(b1-3)Gal
# Method in brief: as §1
# [4] = molecular target: Fuc(a1-2)Gal(b1-3)GalNAc(b1-3)Gal(a1-4)Gal(b1-4)Glc
# Method in brief: as §1
# [5] = molecular target: Fuc(a1-2)Gal(b1-3)GalNAc(b1-4)[Neu5Ac(a2-3)]Gal(b1-4)Glc
# Method in brief: as §1
# Fuc(a1-2)Gal(b1-3)GlcNAc = molecular target: Fuc(a1-2)Gal(b1-3)GlcNAc
# Method in brief: as §1
# [6] = molecular target: Fuc(a1-2)Gal(b1-3)GlcNAc(b1-2)Man(a1-3)[Fuc(a1-2)Gal(b1-3)GlcNAc(b1-2)Man(a1-6)]Man(b1-4)GlcNAc(b1-4)GlcNAc
# Method in brief: as §1
# [7] = molecular target: Fuc(a1-2)Gal(b1-3)GlcNAc(b1-2)Man(a1-3)[Fuc(a1-2)Gal(b1-3)GlcNAc(b1-2)Man(a1-6)]Man(b1-4)GlcNAc(b1-4)[Fuc(a1-6)]GlcNAc
# Method in brief: as §1
# [8] = molecular target: Fuc(a1-2)Gal(b1-3)GlcNAc(b1-3)Gal(b1-4)Glc
# Method in brief: as §1
# [9] = molecular target: Fuc(a1-2)Gal(b1-3)GlcNAc(b1-3)GalNAc
# Method in brief: as §1
# [10] = molecular target: Fuc(a1-2)Gal(b1-3)GlcNAc(b1-3)[Fuc(a1-2)Gal(b1-3)GlcNAc(b1-6)]GalNAc
# Method in brief: as §1
# [11] = molecular target: Fuc(a1-2)Gal(b1-3)GlcNAc(b1-3)[Gal(b1-4)GlcNAc(b1-6)]Gal(b1-4)Glc
# Method in brief: as §1
# [12] = molecular target: Fuc(a1-2)Gal(b1-3)GlcNAc(b1-3)[Neu5Ac(a2-6)Gal(b1-4)GlcNAc(b1-6)]Gal(b1-4)Glc
# Method in brief: as §1
# [13] = molecular target: Fuc(a1-2)Gal(b1-3)GlcNAc6S
# Method in brief: as §1
# [14] = molecular target: Fuc(a1-2)Gal(b1-3)[Fuc(a1-4)]GlcNAc
# Method in brief: as §1
# [15] = molecular target: Fuc(a1-2)Gal(b1-3)[Fuc(a1-4)]GlcNAc(b1-2)Man(a1-3)[Fuc(a1-2)Gal(b1-3)[Fuc(a1-4)]GlcNAc(b1-2)Man(a1-3)]Man(b1-4)GlcNAc(b1-4)GlcNAc
# Method in brief: as §1
# [16] = molecular target: Fuc(a1-2)Gal(b1-3)[Fuc(a1-4)]GlcNAc(b1-2)Man(a1-3)[Fuc(a1-2)Gal(b1-3)[Fuc(a1-4)]GlcNAc(b1-2)Man(a1-6)]Man(b1-4)GlcNAc(b1-4)[Fuc(a1-6)]GlcNAc(b1-4)[Fuc(a1-6)]GlcNAc
# Method in brief: as §1
# [17] = molecular target: Fuc(a1-2)Gal(b1-3)[Fuc(a1-4)]GlcNAc(b1-3)[Fuc(a1-3)[Gal(b1-4)]GlcNAc(b1-6)]Gal(b1-4)Glc
# Method in brief: as §1
# [18] = molecular target: Fuc(a1-2)Gal(b1-3)[Fuc(a1-4)]GlcNAc(b1-3)[Gal(b1-4)GlcNAc(b1-6)]Gal(b1-4)Glc
# Method in brief: as §1
# Fuc(a1-2)Gal(b1-4)Glc = molecular target: Fuc(a1-2)Gal(b1-4)Glc
# Method in brief: as §1
# Fuc(a1-2)Gal(b1-4)Glc6S = molecular target: Fuc(a1-2)Gal(b1-4)Glc6S
# Method in brief: as §1
# Fuc(a1-2)Gal(b1-4)GlcNAc = molecular target: Fuc(a1-2)Gal(b1-4)GlcNAc
# Method in brief: as §1
# [19] = molecular target: Fuc(a1-2)Gal(b1-4)GlcNAc(b1-2)Man
# Method in brief: as §1
# [20] = molecular target: Fuc(a1-2)Gal(b1-4)GlcNAc(b1-2)Man(a1-3)[Fuc(a1-2)Gal(b1-4)GlcNAc(b1-2)Man(a1-6)]Man(b1-4)GlcNAc(b1-4)GlcNAc
# Method in brief: as §1
# [21] = molecular target: Fuc(a1-2)Gal(b1-4)GlcNAc(b1-2)Man(a1-3)[Fuc(a1-2)Gal(b1-4)GlcNAc(b1-2)Man(a1-6)]Man(b1-4)GlcNAc(b1-4)[Fuc(a1-6)]GlcNAc
# Method in brief: as §1
# [22] = molecular target: Fuc(a1-2)Gal(b1-4)GlcNAc(b1-2)[Fuc(a1-2)Gal(b1-4)GlcNAc(b1-4)]Man(a1-3)[Fuc(a1-2)Gal(b1-4)GlcNAc(b1-2)Man(a1-6)]Man(b1-4)GlcNAc(b1-4)GlcNAc
# Method in brief: as §1
# [23] = molecular target: Fuc(a1-2)Gal(b1-4)GlcNAc(b1-3)Gal(b1-4)GlcNAc
# Method in brief: as §1
# [24] = molecular target: Fuc(a1-2)Gal(b1-4)GlcNAc(b1-3)Gal(b1-4)GlcNAc(b1-2)Man(a1-3)[Fuc(a1-2)Gal(b1-4)GlcNAc(b1-3)Gal(b1-4)GlcNAc(b1-2)Man(a1-6)]Man(b1-4)GlcNAc(b1-4)GlcNAc
# Method in brief: as §1
binder,measurement,setting,value
Vd7LysM (Verticillium dahliae) (protein) RRGPEPKYPPAAGTSSYCSYWVDYEGDKSCSRVLEDNVVVLKDFARWNPTVGADCSGIKAGNSYCVEAFGEPEPIEVTTTTRAATTTTQPTATTTTFANGIATPQPTQSGMVTNCNKFHWIAEGVSCSQVISFQKITLADFVKWNPSVKSDCSGMWAGVNVCVGVVGSSTDTAKPTTTAPSNGVVTPQPTQPSMVTNCNKFHWIAKGVTCQQVISYQKISLADFVKWNPSVLSDCSGMWAEVQVCVGVIGSTPTTLATTTTTAGNGVSTPLPTQPGMVTNCAKFHWVAKGVTCNQIYSFQKITLEQFVSYNPTVKSDCSGMQAEVQVCVGLIAGTTPTTTRPPTTTAPGNGVSTPQPTQPGMVTNCAKFHWVAKGVTCNQIYSFQKITLEQFVSFNPTVKSDCTGMQAEVNVCVGLIGGNPTPTQTGNGIATPTPIQPGMVSNCKKFHWIAQGVTCQQVISFQKITLADFVKWNTGVGSDCRTMWAETNVCVGV,glycan array binding signal (z-score),Fuc(a1-2)Gal,-0.054
same,glycan array binding signal (z-score),Fuc(a1-2)Gal(b1-3)GalNAc,0.44
same,glycan array binding signal (z-score),[1],0.018
same,glycan array binding signal (z-score),[2],-0.691
same,glycan array binding signal (z-score),[3],-0.298
same,glycan array binding signal (z-score),[4],-0.625
same,glycan array binding signal (z-score),[5],0.56
same,glycan array binding signal (z-score),Fuc(a1-2)Gal(b1-3)GlcNAc,-0.2
same,glycan array binding signal (z-score),[6],0.203
same,glycan array binding signal (z-score),[7],-0.75
same,glycan array binding signal (z-score),[8],-0.621
same,glycan array binding signal (z-score),[9],-0.215
same,glycan array binding signal (z-score),[10],-0.01
same,glycan array binding signal (z-score),[11],-0.772
same,glycan array binding signal (z-score),[12],-1.86
same,glycan array binding signal (z-score),[13],0.367
same,glycan array binding signal (z-score),[14],-0.646
same,glycan array binding signal (z-score),[15],0.384
same,glycan array binding signal (z-score),[16],-0.925
same,glycan array binding signal (z-score),[17],1.63
same,glycan array binding signal (z-score),[18],-1.91
same,glycan array binding signal (z-score),Fuc(a1-2)Gal(b1-4)Glc,-0.328
same,glycan array binding signal (z-score),Fuc(a1-2)Gal(b1-4)Glc6S,2.67
same,glycan array binding signal (z-score),Fuc(a1-2)Gal(b1-4)GlcNAc,-0.12
same,glycan array binding signal (z-score),[19],0.241
same,glycan array binding signal (z-score),[20],2.13
same,glycan array binding signal (z-score),[21],-0.923
same,glycan array binding signal (z-score),[22],-0.492
same,glycan array binding signal (z-score),[23],-1.33
same,glycan array binding signal (z-score),[24],0.254

# Pulled one by one from above (two):
binder,measurement,setting,value
Vd7LysM (Verticillium dahliae) (protein) RRGPEPKYPPAAGTSSYCSYWVDYEGDKSCSRVLEDNVVVLKDFARWNPTVGADCSGIKAGNSYCVEAFGEPEPIEVTTTTRAATTTTQPTATTTTFANGIATPQPTQSGMVTNCNKFHWIAEGVSCSQVISFQKITLADFVKWNPSVKSDCSGMWAGVNVCVGVVGSSTDTAKPTTTAPSNGVVTPQPTQPSMVTNCNKFHWIAKGVTCQQVISYQKISLADFVKWNPSVLSDCSGMWAEVQVCVGVIGSTPTTLATTTTTAGNGVSTPLPTQPGMVTNCAKFHWVAKGVTCNQIYSFQKITLEQFVSYNPTVKSDCSGMQAEVQVCVGLIAGTTPTTTRPPTTTAPGNGVSTPQPTQPGMVTNCAKFHWVAKGVTCNQIYSFQKITLEQFVSFNPTVKSDCTGMQAEVNVCVGLIGGNPTPTQTGNGIATPTPIQPGMVSNCKKFHWIAQGVTCQQVISFQKITLADFVKWNTGVGSDCRTMWAETNVCVGV,glycan array binding signal (z-score),[4],-0.625
same,glycan array binding signal (z-score),[10],-0.01
